# The supplement of paper PMC12819154, “High-throughput peptide-centric local stability assay extends protein–ligand identification to membrane proteins, tissues and bacteria” (Nature Structural & Molecular Biology, 2025)
# By UniProt entry, the sequences of proteins in these tests, tags left out. Where a name states a change or a piece, a line headed by the entry shows the natural chain unless it says otherwise.
# UniProt B2RPK0: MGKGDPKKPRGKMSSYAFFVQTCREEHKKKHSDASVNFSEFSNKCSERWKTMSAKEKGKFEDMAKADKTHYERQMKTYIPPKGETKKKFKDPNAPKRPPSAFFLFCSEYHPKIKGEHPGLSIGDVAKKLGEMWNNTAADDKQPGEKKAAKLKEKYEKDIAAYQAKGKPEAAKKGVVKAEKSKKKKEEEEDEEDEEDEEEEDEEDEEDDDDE
# UniProt O14795: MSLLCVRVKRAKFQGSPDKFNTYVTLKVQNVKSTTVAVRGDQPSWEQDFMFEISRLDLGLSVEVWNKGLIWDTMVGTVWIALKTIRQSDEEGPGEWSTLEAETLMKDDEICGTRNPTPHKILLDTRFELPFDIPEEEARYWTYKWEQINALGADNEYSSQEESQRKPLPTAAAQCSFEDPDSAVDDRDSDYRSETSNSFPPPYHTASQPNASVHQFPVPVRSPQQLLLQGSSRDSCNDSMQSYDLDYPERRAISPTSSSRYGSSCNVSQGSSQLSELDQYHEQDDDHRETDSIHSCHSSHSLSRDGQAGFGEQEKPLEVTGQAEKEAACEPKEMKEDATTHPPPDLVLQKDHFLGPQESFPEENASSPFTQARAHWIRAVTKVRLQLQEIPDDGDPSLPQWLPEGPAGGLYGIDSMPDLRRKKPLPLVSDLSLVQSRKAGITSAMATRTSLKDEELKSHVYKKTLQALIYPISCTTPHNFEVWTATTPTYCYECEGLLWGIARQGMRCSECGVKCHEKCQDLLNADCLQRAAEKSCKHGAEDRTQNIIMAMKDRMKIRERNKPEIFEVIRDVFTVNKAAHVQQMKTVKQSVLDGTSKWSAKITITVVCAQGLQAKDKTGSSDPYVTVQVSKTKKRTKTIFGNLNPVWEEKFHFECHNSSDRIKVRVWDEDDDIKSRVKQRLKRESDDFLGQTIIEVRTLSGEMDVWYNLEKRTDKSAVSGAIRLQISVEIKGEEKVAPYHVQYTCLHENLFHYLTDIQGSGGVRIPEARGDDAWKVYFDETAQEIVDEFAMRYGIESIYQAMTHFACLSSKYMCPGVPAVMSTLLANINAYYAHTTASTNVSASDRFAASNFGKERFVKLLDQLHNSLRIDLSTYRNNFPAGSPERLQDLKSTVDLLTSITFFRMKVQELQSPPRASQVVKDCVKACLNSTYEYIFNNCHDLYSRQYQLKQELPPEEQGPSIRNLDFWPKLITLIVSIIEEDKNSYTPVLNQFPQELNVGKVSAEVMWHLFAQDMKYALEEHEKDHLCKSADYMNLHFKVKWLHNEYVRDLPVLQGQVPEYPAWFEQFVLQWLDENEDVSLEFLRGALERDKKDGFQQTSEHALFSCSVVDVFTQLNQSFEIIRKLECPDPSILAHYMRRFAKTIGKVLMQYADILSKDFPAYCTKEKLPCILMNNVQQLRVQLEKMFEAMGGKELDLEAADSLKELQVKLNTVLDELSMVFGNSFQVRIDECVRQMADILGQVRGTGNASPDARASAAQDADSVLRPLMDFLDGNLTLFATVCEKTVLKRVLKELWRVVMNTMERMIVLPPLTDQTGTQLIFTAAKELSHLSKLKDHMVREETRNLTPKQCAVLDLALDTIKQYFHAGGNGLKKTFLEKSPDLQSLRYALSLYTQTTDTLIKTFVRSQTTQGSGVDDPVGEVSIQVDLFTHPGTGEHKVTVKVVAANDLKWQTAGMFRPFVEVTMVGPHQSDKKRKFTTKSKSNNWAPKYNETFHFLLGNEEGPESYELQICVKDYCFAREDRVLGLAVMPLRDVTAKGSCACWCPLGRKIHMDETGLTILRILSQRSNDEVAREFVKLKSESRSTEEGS
# UniProt O15230: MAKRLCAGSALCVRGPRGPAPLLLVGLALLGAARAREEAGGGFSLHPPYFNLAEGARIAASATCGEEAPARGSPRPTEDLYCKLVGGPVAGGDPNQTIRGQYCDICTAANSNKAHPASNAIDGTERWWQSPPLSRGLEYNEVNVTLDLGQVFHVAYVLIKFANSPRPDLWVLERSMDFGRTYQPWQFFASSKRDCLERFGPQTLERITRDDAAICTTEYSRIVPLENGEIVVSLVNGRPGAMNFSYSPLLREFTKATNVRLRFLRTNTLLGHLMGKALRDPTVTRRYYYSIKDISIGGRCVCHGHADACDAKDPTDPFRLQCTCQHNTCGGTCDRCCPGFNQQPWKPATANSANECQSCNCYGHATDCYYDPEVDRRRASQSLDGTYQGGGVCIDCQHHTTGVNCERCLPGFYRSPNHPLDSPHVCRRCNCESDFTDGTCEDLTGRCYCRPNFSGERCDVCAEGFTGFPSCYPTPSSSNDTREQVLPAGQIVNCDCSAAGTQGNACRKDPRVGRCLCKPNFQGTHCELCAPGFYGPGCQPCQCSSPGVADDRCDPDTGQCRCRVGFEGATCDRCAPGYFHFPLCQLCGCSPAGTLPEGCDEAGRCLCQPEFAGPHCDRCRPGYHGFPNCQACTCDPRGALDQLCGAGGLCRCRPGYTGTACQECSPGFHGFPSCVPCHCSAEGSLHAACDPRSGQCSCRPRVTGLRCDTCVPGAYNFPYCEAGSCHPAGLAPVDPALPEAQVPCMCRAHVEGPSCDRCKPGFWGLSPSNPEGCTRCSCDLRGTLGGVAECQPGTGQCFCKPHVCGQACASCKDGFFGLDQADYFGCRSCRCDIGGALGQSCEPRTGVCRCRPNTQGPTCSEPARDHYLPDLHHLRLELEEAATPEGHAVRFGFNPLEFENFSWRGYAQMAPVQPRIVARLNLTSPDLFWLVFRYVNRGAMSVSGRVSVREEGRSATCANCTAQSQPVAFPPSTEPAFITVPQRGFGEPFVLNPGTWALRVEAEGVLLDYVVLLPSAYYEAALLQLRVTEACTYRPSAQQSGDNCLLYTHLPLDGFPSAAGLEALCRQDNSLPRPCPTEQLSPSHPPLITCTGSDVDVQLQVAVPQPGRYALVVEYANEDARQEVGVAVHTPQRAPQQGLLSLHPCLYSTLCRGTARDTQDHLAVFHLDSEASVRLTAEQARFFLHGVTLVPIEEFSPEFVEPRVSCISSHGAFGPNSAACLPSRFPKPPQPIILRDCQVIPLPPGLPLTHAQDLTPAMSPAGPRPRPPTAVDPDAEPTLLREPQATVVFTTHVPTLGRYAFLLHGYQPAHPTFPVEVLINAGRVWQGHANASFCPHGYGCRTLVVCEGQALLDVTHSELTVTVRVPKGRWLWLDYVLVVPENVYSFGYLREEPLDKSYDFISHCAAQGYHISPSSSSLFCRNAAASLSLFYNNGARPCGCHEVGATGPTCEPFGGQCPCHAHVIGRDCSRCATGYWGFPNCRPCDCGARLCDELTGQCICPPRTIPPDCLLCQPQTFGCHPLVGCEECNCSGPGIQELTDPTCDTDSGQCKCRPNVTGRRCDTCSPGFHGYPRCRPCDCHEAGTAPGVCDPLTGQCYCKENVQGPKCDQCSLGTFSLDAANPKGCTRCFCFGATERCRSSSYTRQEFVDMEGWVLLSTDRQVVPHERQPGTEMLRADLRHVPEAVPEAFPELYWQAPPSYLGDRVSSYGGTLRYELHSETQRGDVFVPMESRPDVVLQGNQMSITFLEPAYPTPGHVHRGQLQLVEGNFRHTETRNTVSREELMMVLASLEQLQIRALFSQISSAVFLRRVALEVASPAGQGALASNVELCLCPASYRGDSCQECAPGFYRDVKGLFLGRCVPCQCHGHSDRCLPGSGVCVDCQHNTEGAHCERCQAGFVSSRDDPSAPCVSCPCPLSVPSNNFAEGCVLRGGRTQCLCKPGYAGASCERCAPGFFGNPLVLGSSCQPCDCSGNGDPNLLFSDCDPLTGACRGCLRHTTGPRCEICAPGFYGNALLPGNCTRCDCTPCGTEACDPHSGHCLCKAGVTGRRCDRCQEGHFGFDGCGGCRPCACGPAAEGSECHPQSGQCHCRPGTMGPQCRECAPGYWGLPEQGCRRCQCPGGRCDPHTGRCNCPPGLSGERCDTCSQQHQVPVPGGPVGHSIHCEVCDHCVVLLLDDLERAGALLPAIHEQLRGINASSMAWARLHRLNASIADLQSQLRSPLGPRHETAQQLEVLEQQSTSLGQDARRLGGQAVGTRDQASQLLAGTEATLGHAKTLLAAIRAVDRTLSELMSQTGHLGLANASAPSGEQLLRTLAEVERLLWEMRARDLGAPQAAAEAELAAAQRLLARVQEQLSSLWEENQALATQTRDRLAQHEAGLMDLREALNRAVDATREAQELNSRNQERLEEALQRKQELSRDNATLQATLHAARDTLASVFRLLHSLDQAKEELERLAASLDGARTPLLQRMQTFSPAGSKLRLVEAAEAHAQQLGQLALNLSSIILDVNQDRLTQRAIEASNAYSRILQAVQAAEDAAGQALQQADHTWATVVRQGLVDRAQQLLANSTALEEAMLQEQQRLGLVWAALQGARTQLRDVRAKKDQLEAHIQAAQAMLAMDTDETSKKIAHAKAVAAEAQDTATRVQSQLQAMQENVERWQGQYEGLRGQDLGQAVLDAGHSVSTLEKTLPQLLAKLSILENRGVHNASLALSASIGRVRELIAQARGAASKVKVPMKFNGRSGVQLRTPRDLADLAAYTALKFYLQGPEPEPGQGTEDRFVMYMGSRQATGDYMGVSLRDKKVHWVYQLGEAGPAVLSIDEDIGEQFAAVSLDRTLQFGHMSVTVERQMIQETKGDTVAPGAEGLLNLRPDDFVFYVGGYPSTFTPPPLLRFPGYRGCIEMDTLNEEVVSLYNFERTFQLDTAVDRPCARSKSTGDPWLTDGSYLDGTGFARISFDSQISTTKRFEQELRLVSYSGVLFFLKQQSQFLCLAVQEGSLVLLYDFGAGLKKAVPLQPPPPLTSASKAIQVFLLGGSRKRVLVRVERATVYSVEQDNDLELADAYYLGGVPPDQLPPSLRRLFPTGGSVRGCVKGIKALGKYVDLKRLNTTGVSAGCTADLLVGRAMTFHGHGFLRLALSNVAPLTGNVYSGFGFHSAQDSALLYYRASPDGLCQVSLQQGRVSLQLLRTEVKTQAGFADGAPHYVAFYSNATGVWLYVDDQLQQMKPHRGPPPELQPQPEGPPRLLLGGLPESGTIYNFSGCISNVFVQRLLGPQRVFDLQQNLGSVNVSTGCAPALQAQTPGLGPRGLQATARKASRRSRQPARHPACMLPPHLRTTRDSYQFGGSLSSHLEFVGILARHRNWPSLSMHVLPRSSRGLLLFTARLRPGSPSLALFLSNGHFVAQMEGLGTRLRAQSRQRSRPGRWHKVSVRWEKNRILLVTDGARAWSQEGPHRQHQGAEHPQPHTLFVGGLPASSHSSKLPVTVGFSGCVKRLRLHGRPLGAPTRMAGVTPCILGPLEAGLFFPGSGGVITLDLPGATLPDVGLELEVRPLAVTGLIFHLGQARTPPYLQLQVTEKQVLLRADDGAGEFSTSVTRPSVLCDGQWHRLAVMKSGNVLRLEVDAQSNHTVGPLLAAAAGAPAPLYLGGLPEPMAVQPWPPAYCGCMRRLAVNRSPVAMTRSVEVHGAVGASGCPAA
# UniProt O15498: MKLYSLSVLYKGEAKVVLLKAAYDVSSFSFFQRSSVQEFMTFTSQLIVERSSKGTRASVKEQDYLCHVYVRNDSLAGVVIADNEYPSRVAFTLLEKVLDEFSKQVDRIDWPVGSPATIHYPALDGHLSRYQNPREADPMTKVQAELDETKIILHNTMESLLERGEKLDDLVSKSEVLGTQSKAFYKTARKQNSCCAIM
# UniProt O14604: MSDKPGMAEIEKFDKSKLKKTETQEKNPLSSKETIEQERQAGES
# UniProt O00571: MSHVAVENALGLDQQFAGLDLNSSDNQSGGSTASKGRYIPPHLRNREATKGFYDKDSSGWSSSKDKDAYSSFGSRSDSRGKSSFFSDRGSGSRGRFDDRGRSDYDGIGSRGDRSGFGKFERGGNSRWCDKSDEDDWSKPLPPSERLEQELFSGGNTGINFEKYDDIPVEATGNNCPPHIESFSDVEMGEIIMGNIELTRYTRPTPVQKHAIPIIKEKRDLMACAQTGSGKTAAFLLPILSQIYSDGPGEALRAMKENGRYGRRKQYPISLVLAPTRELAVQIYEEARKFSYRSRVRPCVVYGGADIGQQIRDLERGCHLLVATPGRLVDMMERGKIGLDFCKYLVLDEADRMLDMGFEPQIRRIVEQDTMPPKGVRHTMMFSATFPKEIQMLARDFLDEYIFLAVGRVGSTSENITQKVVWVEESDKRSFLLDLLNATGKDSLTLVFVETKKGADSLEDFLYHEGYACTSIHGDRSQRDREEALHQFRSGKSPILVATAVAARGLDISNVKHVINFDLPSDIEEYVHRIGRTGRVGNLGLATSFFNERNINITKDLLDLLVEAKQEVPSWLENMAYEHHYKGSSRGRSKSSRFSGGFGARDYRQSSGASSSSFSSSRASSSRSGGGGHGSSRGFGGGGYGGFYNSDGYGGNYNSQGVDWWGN
# This is one part of the list. Most values lie at the level of the controls, where differences are scatter.
# Compound: Cc1nc(Nc2ncc(C(=O)Nc3c(C)cccc3Cl)s2)cc(N2CCN(CCO)CC2)n1 [dasatinib]
# Assay: log2 fold change of tryptic peptide abundance, ligand vs vehicle (limited proteolysis) (log2 ratio); higher = more trypsin-susceptible (destabilized)
# Conditions: ligand concentration: 5 uM; sample: K562 cleared lysate
row,Target,log2 fold change
1,"UniProt B2RPK0 (peptide sequence: GEHPGLSIGDVAKK, peptide start residue: 115)",0.0668
2,"KIF3C (peptide sequence: VGKLNLVDLAGSER, peptide start residue: 238) (UniProt O14782)",0.153
3,"UNC13B (peptide sequence: ERNKPEIFEVIR, peptide start residue: 559) (UniProt O14795)",-0.555
4,"LAMA5 (peptide sequence: AVAAEAQDTATR, peptide start residue: 2634) (UniProt O15230)",-0.312
5,"AP3D1 (peptide sequence: LFGALTPLEPR, peptide start residue: 244) (UniProt O14617)",-0.4
6,"OGT (peptide sequence: MLSFQGLAELAHR, peptide start residue: 18) (UniProt O15294)",0.53
7,"YKT6 (peptide sequence: ASVKEQDYLCHVYVR, peptide start residue: 57) (UniProt O15498)",-0.303
8,"UniProt C9JQI7 (peptide sequence: EKEDAICK, peptide start residue: 608)",-0.0727
9,"UniProt O14604 (peptide sequence: KTETQEK, peptide start residue: 20)",0.0503
10,"DDX3X (peptide sequence: EATKGFYDKDSSGWSSSK, peptide start residue: 47) (UniProt O00571)",-0.987
11,"ARPC5 (peptide sequence: QGNMTAALQAALK, peptide start residue: 48) (UniProt O15511)",0.31
